Reference: the supplement of paper PMC12819154, “High-throughput peptide-centric local stability assay extends protein–ligand identification to membrane proteins, tissues and bacteria” (Nature Structural & Molecular Biology, 2025)
This is one part of the list. Most entries show no effect beyond the scatter of the controls.

Sequences of proteins named here, by UniProt entry; tags and fusion partners are left off. A change or cut given only in a name is not applied to a line headed by its entry.
UniProt P49326: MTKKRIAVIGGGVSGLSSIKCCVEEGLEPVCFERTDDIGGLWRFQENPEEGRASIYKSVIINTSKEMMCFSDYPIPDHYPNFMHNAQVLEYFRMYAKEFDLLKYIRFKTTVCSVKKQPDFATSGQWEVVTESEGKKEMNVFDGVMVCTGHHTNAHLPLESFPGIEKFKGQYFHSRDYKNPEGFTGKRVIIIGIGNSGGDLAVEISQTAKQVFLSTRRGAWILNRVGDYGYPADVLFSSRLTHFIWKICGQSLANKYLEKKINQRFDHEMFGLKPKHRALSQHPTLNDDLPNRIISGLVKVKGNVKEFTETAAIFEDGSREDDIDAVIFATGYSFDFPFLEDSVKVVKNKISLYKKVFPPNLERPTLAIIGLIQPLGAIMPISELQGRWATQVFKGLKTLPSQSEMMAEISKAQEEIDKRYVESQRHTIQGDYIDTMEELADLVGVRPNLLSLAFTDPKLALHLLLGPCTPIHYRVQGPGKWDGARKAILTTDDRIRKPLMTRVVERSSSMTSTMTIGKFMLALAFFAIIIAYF
UniProt P49815: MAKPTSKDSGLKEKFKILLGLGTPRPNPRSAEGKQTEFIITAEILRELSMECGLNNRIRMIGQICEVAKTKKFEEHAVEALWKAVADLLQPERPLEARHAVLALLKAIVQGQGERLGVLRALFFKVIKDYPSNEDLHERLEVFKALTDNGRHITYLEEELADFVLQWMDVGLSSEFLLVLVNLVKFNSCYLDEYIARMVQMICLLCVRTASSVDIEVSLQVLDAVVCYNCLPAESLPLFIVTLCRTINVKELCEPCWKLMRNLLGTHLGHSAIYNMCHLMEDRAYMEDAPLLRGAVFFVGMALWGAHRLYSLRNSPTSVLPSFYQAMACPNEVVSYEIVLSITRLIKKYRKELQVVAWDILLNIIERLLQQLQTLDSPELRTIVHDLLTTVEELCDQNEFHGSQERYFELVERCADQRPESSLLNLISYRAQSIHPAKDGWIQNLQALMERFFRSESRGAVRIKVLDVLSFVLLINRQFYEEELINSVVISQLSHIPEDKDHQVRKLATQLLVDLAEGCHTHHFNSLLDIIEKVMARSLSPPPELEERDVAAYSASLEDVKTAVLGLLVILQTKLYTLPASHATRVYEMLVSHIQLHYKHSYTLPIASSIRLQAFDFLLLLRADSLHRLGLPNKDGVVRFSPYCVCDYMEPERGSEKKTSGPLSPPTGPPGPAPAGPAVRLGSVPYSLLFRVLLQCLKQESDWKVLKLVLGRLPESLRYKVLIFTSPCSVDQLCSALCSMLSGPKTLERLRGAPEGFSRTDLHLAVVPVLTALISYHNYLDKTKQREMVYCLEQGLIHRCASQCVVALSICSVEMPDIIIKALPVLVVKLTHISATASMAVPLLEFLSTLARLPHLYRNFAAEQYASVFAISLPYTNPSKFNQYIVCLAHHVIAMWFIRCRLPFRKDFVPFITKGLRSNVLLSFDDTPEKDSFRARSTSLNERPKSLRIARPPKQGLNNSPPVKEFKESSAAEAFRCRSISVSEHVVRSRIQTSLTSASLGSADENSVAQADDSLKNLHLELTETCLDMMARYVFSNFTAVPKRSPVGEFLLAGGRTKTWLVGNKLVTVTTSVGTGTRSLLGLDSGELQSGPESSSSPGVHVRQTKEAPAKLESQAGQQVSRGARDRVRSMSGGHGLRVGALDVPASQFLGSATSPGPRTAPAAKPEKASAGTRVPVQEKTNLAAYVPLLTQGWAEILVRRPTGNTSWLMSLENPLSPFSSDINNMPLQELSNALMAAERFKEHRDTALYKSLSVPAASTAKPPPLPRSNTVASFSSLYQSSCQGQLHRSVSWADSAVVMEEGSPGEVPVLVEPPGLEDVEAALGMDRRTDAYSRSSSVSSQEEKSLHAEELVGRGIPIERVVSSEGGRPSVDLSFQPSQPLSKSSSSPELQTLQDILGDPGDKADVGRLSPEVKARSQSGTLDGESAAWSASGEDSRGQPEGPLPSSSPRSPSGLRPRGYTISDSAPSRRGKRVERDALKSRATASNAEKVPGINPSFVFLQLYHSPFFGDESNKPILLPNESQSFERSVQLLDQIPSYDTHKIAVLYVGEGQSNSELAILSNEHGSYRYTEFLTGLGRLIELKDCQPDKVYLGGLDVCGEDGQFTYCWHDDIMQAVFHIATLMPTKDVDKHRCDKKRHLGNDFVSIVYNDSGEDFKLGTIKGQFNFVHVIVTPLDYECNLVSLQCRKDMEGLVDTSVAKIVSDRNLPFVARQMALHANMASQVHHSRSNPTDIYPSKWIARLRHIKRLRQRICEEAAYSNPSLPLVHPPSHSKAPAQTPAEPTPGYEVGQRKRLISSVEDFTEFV
UniProt P49642: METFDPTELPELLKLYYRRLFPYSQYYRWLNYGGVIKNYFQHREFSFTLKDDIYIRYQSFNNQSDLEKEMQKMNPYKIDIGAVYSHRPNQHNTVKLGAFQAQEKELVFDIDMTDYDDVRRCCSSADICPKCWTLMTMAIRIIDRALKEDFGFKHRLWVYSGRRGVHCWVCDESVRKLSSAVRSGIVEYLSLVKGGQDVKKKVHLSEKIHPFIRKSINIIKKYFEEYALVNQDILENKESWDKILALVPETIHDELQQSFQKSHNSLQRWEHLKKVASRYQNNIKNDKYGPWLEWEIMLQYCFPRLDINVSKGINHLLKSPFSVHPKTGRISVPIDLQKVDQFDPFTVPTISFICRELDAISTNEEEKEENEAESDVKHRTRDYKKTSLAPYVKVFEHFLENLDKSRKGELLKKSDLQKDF
UniProt P49760, whole entry, looked up: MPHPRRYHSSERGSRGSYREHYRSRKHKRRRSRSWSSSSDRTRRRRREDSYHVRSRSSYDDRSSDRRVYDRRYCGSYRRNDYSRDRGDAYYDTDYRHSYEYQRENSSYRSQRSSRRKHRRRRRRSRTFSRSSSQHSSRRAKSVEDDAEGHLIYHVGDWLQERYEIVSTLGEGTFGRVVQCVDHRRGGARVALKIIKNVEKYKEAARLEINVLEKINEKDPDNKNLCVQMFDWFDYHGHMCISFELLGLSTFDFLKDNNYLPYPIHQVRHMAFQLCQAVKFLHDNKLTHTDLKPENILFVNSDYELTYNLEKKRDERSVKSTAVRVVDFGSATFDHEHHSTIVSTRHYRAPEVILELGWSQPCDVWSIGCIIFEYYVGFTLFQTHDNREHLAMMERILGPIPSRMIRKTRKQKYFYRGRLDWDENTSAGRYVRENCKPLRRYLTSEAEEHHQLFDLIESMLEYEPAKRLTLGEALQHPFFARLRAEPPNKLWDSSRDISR
UniProt P51553: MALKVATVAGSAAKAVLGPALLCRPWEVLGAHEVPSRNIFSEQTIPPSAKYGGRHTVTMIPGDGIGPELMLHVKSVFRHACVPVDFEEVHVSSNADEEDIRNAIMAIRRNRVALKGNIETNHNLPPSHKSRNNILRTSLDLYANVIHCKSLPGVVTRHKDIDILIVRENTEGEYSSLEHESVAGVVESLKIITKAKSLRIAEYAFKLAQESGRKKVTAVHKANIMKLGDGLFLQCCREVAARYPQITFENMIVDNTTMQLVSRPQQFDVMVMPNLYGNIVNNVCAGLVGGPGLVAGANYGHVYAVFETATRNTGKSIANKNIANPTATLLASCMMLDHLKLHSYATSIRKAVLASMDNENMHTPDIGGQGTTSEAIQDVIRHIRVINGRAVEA
UniProt P49593: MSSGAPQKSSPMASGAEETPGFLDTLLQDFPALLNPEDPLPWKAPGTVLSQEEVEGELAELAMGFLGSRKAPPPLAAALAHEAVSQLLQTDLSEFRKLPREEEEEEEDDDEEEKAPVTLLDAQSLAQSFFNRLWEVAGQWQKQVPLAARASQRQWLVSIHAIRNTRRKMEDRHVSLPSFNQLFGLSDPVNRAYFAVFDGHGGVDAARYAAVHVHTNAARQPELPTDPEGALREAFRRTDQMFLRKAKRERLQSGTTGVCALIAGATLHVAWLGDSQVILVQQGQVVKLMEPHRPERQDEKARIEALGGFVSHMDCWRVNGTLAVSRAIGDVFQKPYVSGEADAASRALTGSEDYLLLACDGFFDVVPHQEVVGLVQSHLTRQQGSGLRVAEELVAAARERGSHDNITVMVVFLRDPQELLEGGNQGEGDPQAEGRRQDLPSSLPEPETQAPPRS
UniProt P50552: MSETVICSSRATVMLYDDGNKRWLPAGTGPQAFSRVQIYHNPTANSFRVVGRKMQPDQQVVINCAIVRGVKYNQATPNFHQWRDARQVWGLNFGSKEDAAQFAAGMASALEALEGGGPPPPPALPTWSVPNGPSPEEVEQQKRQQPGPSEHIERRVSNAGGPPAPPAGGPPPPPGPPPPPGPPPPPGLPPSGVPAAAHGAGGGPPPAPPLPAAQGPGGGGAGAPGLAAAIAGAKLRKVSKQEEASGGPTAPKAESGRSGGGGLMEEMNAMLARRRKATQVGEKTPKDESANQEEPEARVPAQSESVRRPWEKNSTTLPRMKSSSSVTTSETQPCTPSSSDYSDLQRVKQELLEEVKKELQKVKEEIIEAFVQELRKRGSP
UniProt P53567: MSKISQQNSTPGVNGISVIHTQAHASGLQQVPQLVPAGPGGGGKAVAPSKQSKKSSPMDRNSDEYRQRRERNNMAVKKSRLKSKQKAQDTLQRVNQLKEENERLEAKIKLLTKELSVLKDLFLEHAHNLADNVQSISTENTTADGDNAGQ
UniProt P52756, whole entry: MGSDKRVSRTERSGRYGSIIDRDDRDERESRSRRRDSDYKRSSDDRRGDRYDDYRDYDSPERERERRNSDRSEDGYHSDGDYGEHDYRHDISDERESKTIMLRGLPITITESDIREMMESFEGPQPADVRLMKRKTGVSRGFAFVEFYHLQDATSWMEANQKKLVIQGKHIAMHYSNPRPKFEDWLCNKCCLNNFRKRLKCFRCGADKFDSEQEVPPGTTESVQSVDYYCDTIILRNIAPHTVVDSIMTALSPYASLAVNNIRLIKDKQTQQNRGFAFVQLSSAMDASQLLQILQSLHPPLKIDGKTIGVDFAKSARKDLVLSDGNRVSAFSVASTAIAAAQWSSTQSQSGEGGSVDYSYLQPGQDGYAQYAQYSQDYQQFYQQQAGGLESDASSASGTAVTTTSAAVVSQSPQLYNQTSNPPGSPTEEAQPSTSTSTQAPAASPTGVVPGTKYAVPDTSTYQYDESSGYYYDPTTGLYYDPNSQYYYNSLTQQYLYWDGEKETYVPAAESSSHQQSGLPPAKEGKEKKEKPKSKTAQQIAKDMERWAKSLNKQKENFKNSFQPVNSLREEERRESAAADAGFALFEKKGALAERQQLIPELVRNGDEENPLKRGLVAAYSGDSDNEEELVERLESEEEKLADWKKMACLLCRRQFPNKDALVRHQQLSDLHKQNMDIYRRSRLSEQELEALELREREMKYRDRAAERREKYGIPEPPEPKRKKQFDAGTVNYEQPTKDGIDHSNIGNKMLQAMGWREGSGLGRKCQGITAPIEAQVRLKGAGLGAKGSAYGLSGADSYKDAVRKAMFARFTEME
UniProt P53680: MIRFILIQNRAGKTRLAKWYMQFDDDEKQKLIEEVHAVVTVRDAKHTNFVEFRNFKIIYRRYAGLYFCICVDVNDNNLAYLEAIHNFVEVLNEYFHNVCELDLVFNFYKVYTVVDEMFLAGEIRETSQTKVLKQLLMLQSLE
UniProt P49821, whole entry: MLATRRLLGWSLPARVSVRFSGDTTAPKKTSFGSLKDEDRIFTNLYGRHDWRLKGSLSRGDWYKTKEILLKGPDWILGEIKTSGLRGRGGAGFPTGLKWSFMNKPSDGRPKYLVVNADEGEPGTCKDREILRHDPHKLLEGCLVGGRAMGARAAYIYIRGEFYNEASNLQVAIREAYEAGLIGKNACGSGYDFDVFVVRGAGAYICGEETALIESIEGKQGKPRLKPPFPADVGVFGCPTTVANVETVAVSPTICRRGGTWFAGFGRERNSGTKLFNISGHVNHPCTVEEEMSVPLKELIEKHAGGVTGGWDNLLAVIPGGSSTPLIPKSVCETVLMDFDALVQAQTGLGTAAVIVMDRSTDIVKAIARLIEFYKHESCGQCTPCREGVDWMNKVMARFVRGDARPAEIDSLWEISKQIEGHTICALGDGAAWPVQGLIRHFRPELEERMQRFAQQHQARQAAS
UniProt P53367: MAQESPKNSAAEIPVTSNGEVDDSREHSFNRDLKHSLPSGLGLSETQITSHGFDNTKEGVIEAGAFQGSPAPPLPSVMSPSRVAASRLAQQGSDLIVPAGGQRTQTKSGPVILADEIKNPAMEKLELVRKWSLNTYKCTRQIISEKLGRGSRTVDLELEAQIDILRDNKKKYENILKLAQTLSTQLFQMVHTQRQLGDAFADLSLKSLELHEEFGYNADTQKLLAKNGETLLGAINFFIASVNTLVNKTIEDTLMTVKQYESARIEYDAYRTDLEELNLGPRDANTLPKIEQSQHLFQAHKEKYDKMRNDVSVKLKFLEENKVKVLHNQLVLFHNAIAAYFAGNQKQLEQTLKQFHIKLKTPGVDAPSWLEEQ

Compound: CN[C@@H]1C[C@H]2O[C@@](C)([C@@H]1OC)n1c3ccccc3c3c4c(c5c6ccccc6n2c5c31)C(=O)NC4 [staurosporine]
Assay: log2 fold change of tryptic peptide abundance, ligand vs vehicle (limited proteolysis) (log2 ratio); higher = more trypsin-susceptible (destabilized)
Conditions: ligand concentration: 20 uM; sample: K562 cleared lysate; digestion: 4 min, 22 C (HT-PELSA RT4min, Orbitrap Astral)

Target | log2 fold change
RAP1GAP (peptide sequence: SPHPDAGKLGDPACPEIK, peptide start residue: 631) (UniProt P47736) | 0.707
MRPL12 (peptide sequence: ANVAKAEAEKIK, peptide start residue: 174) (UniProt P52815) | 1.22
UniProt P49326 (peptide sequence: KINQRFDHEMFGLK, peptide start residue: 260) | 0.0649
TSC2 (peptide sequence: SNVLLSFDDTPEKDSFR, peptide start residue: 918) (UniProt P49815) | -0.321
DNA2 (peptide sequence: FVLVGDHQQLPPLVLNR, peptide start residue: 782) (UniProt P51530) | -0.547
PRIM1 (peptide sequence: GVHCWVCDESVR, peptide start residue: 164) (UniProt P49642) | -0.199
RPL28 (peptide sequence: TVGVEPAADGK, peptide start residue: 48) (UniProt P46779) | -0.0987
EMD (peptide sequence: GDADMYDLPKKEDALLYQSK, peptide start residue: 69) (UniProt P50402) | -0.254
IREB2 (peptide sequence: SDFQACLNEK, peptide start residue: 462) (UniProt P48200) | -0.714
COPB1 (peptide sequence: AKSQGMALSLGDK, peptide start residue: 931) (UniProt P53618) | 0.716
IDH3A (peptide sequence: IAEFAFEYAR, peptide start residue: 179) (UniProt P50213) | -0.143
CLK2 (peptide sequence: RYHSSERGSR, peptide start residue: 6) (UniProt P49760) | 0.016
IDH3G (peptide sequence: LHSYATSIR, peptide start residue: 341) (UniProt P51553) | 0.236
UniProt P50539 (peptide sequence: STHNELEK, peptide start residue: 70) | 0.517
GALK1 (peptide sequence: HVVGEIRR, peptide start residue: 280) (UniProt P51570) | 0.526
BCAT1 (peptide sequence: CILDLAHQWGEFK, peptide start residue: 293) (UniProt P54687) | -0.4
NRIP1 (peptide sequence: LQTVALSQQIR, peptide start residue: 144) (UniProt P48552) | 0.208
PPM1F (peptide sequence: QWLVSIHAIR, peptide start residue: 154) (UniProt P49593) | -0.145

Some of the entries so far, as comma-separated lines.
Target,log2 fold change
"UniProt P49326 (peptide sequence: KINQRFDHEMFGLK, peptide start residue: 260)",0.0649
"TSC2 (peptide sequence: SNVLLSFDDTPEKDSFR, peptide start residue: 918) (UniProt P49815)",-0.321

(continued)

Target | log2 fold change
UniProt P51784 (peptide sequence: QAWSGHHR, peptide start residue: 368) | 0.488
VASP (peptide sequence: TPKDESANQEEPEAR, peptide start residue: 284) (UniProt P50552) | -0.156
POLG (peptide sequence: RPQHLPGHPGWYR, peptide start residue: 562) (UniProt P54098) | -0.352
KNTC1 (peptide sequence: QHLEMDHPK, peptide start residue: 821) (UniProt P50748) | 1.02
CEBPG (peptide sequence: VNQLKEENERLEAK, peptide start residue: 94) (UniProt P53567) | 0.08
RBM5 (peptide sequence: HDISDER, peptide start residue: 89) (UniProt P52756) | -0.319
UniProt P53680 (peptide sequence: QLLMLQSLE, peptide start residue: 134) | 0.17
UniProt P49450 (peptide sequence: IRGLEEGLG, peptide start residue: 132) | -0.12
ARFIP2 (peptide sequence: KYESVLQLGR, peptide start residue: 139) (UniProt P53365) | 0.195
NDUFV1 (peptide sequence: AAYIYIR, peptide start residue: 153) (UniProt P49821) | -0.282
CAPZA2 (peptide sequence: AYVKEHYPNGVCTVYGK, peptide start residue: 130) (UniProt P47755) | -0.423
RAB28 (peptide sequence: LNKAEIEQSQR, peptide start residue: 182) (UniProt P51157) | 0.544
GSS (peptide sequence: HVLSVLSK, peptide start residue: 165) (UniProt P48637) | -0.165
UniProt P48634 (peptide sequence: AVGTPGGGGGGAVPGISAMSR, peptide start residue: 1350) | -0.247
CTCF (peptide sequence: HADNCAGPDGVEGENGGETKK, peptide start residue: 573) (UniProt P49711) | -0.423
LMAN1 (peptide sequence: YVSSLTEEISKR, peptide start residue: 362) (UniProt P49257) | -0.226
FXR2 (peptide sequence: RASLLGDMHFR, peptide start residue: 190) (UniProt P51116) | -0.581
ARFIP1 (peptide sequence: IEYDAYR, peptide start residue: 265) (UniProt P53367) | 0.21
